In paper PMC5345684:
These are yes or no findings as the source states them, for the method shown. Some entries that bind do so weakly or less than the wild type. Sequences can lack the tags named with a protein.

Molecular target: T1, Myc-tagged retinoschisin (non-mutant), purified (human), O15537
T1 chain: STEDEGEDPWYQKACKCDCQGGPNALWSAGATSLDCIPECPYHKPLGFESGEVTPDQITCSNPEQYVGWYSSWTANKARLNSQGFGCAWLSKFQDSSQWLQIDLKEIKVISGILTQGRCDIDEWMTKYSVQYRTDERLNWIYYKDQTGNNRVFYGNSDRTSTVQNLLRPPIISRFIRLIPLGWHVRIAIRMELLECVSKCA
Test: SDS-PAGE under non-reducing and reducing conditions, Western blot; aliquots of Hek293 culture supernatant and of purified Myc-tagged RS1 fractions on 4-20% gradient gels, antiretinoschisin antibody; disulphide-linked oligomers; both purified
Conditions: remark: other sources report otherwise

B1: Myc-tagged retinoschisin (non-mutant), purified, O15537 24-224 (protein)
chain: T1 chain
Question: B1 was tested. Which binding did it give?
Answer: The binding was “binds”.
